The list shows a part of the results.
Columns and labels:
Experiment in all cases: glycan array binding signal (z-score within array); higher = stronger binding
Details in all cases: glycan notation: IUPAC condensed, linker removed
[1] = molecular target: Neu5Ac(a2-3)Gal(b1-4)GlcNAc(b1-3)[Neu5Ac(a2-3)Gal(b1-4)GlcNAc(b1-6)]GalNAc
Method in brief: (§1)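 The Consortium for Functional Glycomics database supplied 3228 glycan arrays, of which those lacking an available protein sequence were dropped. The binding signal, a within-array Z-score, was averaged across arrays of the same protein sequence and across linkers. Negative scores can be read as non-binding.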

[2] = molecular target: Neu5Ac(a2-3)Gal(b1-4)GlcNAc(b1-6)GalNAc
Method in brief: as §1

[3] = molecular target: Neu5Ac(a2-3)Gal(b1-4)GlcNAc(b1-6)[Gal(b1-3)]GalNAc
Method in brief: as §1

[4] = molecular target: Neu5Ac(a2-3)Gal(b1-4)GlcNAc(b1-6)[Neu5Ac(a2-3)Gal(b1-3)]GalNAc
Method in brief: as §1

[5] = molecular target: Neu5Ac(a2-3)Gal(b1-4)GlcNAc6S
Method in brief: as §1

[6] = molecular target: Neu5Ac(a2-3)Gal(b1-4)[Fuc(a1-3)]GlcNAc
Method in brief: as §1

[7] = molecular target: Neu5Ac(a2-3)Gal(b1-4)[Fuc(a1-3)]GlcNAc(b1-2)Man
Method in brief: as §1

[8] = molecular target: Neu5Ac(a2-3)Gal(b1-4)[Fuc(a1-3)]GlcNAc(b1-3)Gal
Method in brief: as §1

[9] = molecular target: Neu5Ac(a2-3)Gal(b1-4)[Fuc(a1-3)]GlcNAc(b1-3)Gal(b1-4)GlcNAc
Method in brief: as §1

[10] = molecular target: Neu5Ac(a2-3)Gal(b1-4)[Fuc(a1-3)]GlcNAc(b1-3)Gal(b1-4)[Fuc(a1-3)]GlcNAc(b1-3)Gal(b1-4)[Fuc(a1-3)]GlcNAc
Method in brief: as §1

[11] = molecular target: Neu5Ac(a2-3)Gal(b1-4)[Fuc(a1-3)]GlcNAc(b1-3)GalNAc
Method in brief: as §1

[12] = molecular target: Neu5Ac(a2-3)Gal(b1-4)[Fuc(a1-3)]GlcNAc(b1-6)[Gal(b1-3)]GalNAc
Method in brief: as §1

[13] = molecular target: Neu5Ac(a2-3)Gal(b1-4)[Fuc(a1-3)]GlcNAc(b1-6)[Neu5Ac(a2-3)Gal(b1-3)]GalNAc
Method in brief: as §1

[14] = molecular target: Neu5Ac(a2-3)Gal(b1-4)[Fuc(a1-3)]GlcNAc6S
Method in brief: as §1

[15] = molecular target: Neu5Ac(a2-3)Gal6S(b1-4)GlcNAc
Method in brief: as §1

[16] = molecular target: Neu5Ac(a2-3)Gal6S(b1-4)[Fuc(a1-3)]GlcNAc
Method in brief: as §1

Neu5Ac(a2-3)GalNAc = molecular target: Neu5Ac(a2-3)GalNAc
Method in brief: as §1

[17] = molecular target: Neu5Ac(a2-3)GalNAc(b1-4)GlcNAc
Method in brief: as §1

[18] = molecular target: Neu5Ac(a2-3)[GalNAc(b1-4)]Gal(b1-4)Glc
Method in brief: as §1

[19] = molecular target: Neu5Ac(a2-3)[GalNAc(b1-4)]Gal(b1-4)GlcNAc
Method in brief: as §1

[20] = molecular target: Neu5Ac(a2-3)[GalNAc(b1-4)]Gal(b1-4)GlcNAc(b1-3)GalNAc
Method in brief: as §1

[21] = molecular target: Neu5Ac(a2-3)[Neu5Ac(a2-6)]GalNAc
Method in brief: as §1

Neu5Ac(a2-6)Gal = molecular target: Neu5Ac(a2-6)Gal
Method in brief: as §1

[22] = molecular target: Neu5Ac(a2-6)Gal(b1-3)GlcNAc(b1-3)[Gal(b1-4)GlcNAc(b1-6)]Gal(b1-4)Glc
Method in brief: as §1

Neu5Ac(a2-6)Gal(b1-4)Glc = molecular target: Neu5Ac(a2-6)Gal(b1-4)Glc
Method in brief: as §1

[23] = molecular target: Neu5Ac(a2-6)Gal(b1-4)GlcNAc
Method in brief: as §1

[24] = molecular target: Neu5Ac(a2-6)Gal(b1-4)GlcNAc(b1-2)Man
Method in brief: as §1

[25] = molecular target: Neu5Ac(a2-6)Gal(b1-4)GlcNAc(b1-2)Man(a1-3)Man(b1-4)GlcNAc(b1-4)GlcNAc
Method in brief: as §1

[26] = molecular target: Neu5Ac(a2-6)Gal(b1-4)GlcNAc(b1-2)Man(a1-3)[Gal(b1-4)GlcNAc(b1-2)Man(a1-6)]Man(b1-4)GlcNAc(b1-4)GlcNAc
Method in brief: as §1

[27] = molecular target: Neu5Ac(a2-6)Gal(b1-4)GlcNAc(b1-2)Man(a1-3)[GlcNAc(b1-2)Man(a1-6)]Man(b1-4)GlcNAc(b1-4)GlcNAc
Method in brief: as §1

[28] = molecular target: Neu5Ac(a2-6)Gal(b1-4)GlcNAc(b1-2)Man(a1-3)[GlcNAc(b1-4)][Neu5Ac(a2-6)Gal(b1-4)GlcNAc(b1-2)Man(a1-6)]Man(b1-4)GlcNAc(b1-4)GlcNAc
Method in brief: as §1

[29] = molecular target: Neu5Ac(a2-6)Gal(b1-4)GlcNAc(b1-2)Man(a1-3)[Man(a1-6)]Man(b1-4)GlcNAc(b1-4)GlcNAc
Method in brief: as §1

[30] = molecular target: Neu5Ac(a2-6)Gal(b1-4)GlcNAc(b1-2)Man(a1-3)[Neu5Ac(a2-3)Gal(b1-4)GlcNAc(b1-2)Man(a1-6)]Man(b1-4)GlcNAc(b1-4)GlcNAc
Method in brief: as §1

[31] = molecular target: Neu5Ac(a2-6)Gal(b1-4)GlcNAc(b1-2)Man(a1-3)[Neu5Ac(a2-6)Gal(b1-4)GlcNAc(b1-2)Man(a1-6)]Man(b1-4)GlcNAc(b1-4)GlcNAc
Method in brief: as §1

[32] = molecular target: Neu5Ac(a2-6)Gal(b1-4)GlcNAc(b1-2)Man(a1-3)[Neu5Ac(a2-6)Gal(b1-4)GlcNAc(b1-2)Man(a1-6)]Man(b1-4)GlcNAc(b1-4)[Fuc(a1-6)]GlcNAc
Method in brief: as §1

[33] = molecular target: Neu5Ac(a2-6)Gal(b1-4)GlcNAc(b1-2)Man(a1-6)Man(b1-4)GlcNAc(b1-4)GlcNAc
Method in brief: as §1

[34] = molecular target: Neu5Ac(a2-6)Gal(b1-4)GlcNAc(b1-2)Man(a1-6)[Gal(b1-4)GlcNAc(b1-2)Man(a1-3)]Man(b1-4)GlcNAc(b1-4)GlcNAc
Method in brief: as §1

[35] = molecular target: Neu5Ac(a2-6)Gal(b1-4)GlcNAc(b1-2)Man(a1-6)[GlcNAc(b1-2)Man(a1-3)]Man(b1-4)GlcNAc(b1-4)GlcNAc
Method in brief: as §1

[36] = molecular target: Neu5Ac(a2-6)Gal(b1-4)GlcNAc(b1-2)Man(a1-6)[Man(a1-3)]Man(b1-4)GlcNAc(b1-4)GlcNAc
Method in brief: as §1

[37] = molecular target: Neu5Ac(a2-6)Gal(b1-4)GlcNAc(b1-2)[Neu5Ac(a2-6)Gal(b1-4)GlcNAc(b1-4)]Man(a1-3)[GlcNAc(b1-4)][Neu5Ac(a2-6)Gal(b1-4)GlcNAc(b1-2)[Neu5Ac(a2-6)Gal(b1-4)GlcNAc(b1-6)]Man(a1-6)]Man(b1-4)GlcNAc(b1-4)GlcNAc
Method in brief: as §1

[38] = molecular target: Neu5Ac(a2-6)Gal(b1-4)GlcNAc(b1-2)[Neu5Ac(a2-6)Gal(b1-4)GlcNAc(b1-4)]Man(a1-3)[GlcNAc(b1-4)][Neu5Ac(a2-6)Gal(b1-4)GlcNAc(b1-4)Man(a1-6)]Man(b1-4)GlcNAc(b1-4)GlcNAc
Method in brief: as §1

[39] = molecular target: Neu5Ac(a2-6)Gal(b1-4)GlcNAc(b1-2)[Neu5Ac(a2-6)Gal(b1-4)GlcNAc(b1-6)]Man(a1-6)[Neu5Ac(a2-6)Gal(b1-4)GlcNAc(b1-2)Man(a1-3)][GlcNAc(b1-4)]Man(b1-4)GlcNAc(b1-4)GlcNAc
Method in brief: as §1

[40] = molecular target: Neu5Ac(a2-6)Gal(b1-4)GlcNAc(b1-3)Gal(b1-3)GlcNAc
Method in brief: as §1

[41] = molecular target: Neu5Ac(a2-6)Gal(b1-4)GlcNAc(b1-3)Gal(b1-4)GlcNAc
Method in brief: as §1

[42] = molecular target: Neu5Ac(a2-6)Gal(b1-4)GlcNAc(b1-3)Gal(b1-4)GlcNAc(b1-2)Man(a1-3)[Neu5Ac(a2-6)Gal(b1-4)GlcNAc(b1-3)Gal(b1-4)GlcNAc(b1-2)Man(a1-6)]GalNAc
Method in brief: as §1

B1: Epa8 (Candida glabrata) (protein)
chain: MGSSHHHHHHSSGLVPRGSHMASSRALSDYPLGCSPLLGTKLTPGLSMELYEYPLDNHGIGPHCWDPAYLNPEYPRTGFESHKLIGTAQNVMSLNFEHRTQDCHVEFSNLPASFNFPDQITLTNFTMLLYGYFKPKESGRYRFHMEADDLLLMNLGAGNAFDCCAHEATRNNLGDYIAYDIWAGTRKDVEVFLEKEVFYPLRLFFNNRDGRAALDFSYYLNGATEPGTDIPELLFSLPDGESCPAYI
[1]
  glycan array binding signal (z-score): 1.06
[2]
  glycan array binding signal (z-score): -0.629
[3]
  glycan array binding signal (z-score): 0.137
[4]
  glycan array binding signal (z-score): -0.788
[5]
  glycan array binding signal (z-score): -0.268
[6]
  glycan array binding signal (z-score): -0.049
[7]
  glycan array binding signal (z-score): 0.17
[8]
  glycan array binding signal (z-score): 1.15
[9]
  glycan array binding signal (z-score): 0.387
[10]
  glycan array binding signal (z-score): -1.14
[11]
  glycan array binding signal (z-score): 1.26
[12]
  glycan array binding signal (z-score): 1.64
[13]
  glycan array binding signal (z-score): 0.504
[14]
  glycan array binding signal (z-score): -0.455
[15]
  glycan array binding signal (z-score): -0.355
[16]
  glycan array binding signal (z-score): -0.533
Neu5Ac(a2-3)GalNAc
  glycan array binding signal (z-score): -0.725
[17]
  glycan array binding signal (z-score): 0.308
[18]
  glycan array binding signal (z-score): -0.619
[19]
  glycan array binding signal (z-score): -0.187
[20]
  glycan array binding signal (z-score): 0.105
[21]
  glycan array binding signal (z-score): -0.546
Neu5Ac(a2-6)Gal
  glycan array binding signal (z-score): -0.212
[22]
  glycan array binding signal (z-score): -0.986
Neu5Ac(a2-6)Gal(b1-4)Glc
  glycan array binding signal (z-score): -0.748
[23]
  glycan array binding signal (z-score): -0.933
[24]
  glycan array binding signal (z-score): 1.14
[25]
  glycan array binding signal (z-score): -0.059
[26]
  glycan array binding signal (z-score): -0.408
[27]
  glycan array binding signal (z-score): 0.006
[28]
  glycan array binding signal (z-score): -1.18
[29]
  glycan array binding signal (z-score): -0.046
[30]
  glycan array binding signal (z-score): -0.239
[31]
  glycan array binding signal (z-score): -0.087
[32]
  glycan array binding signal (z-score): -0.515
[33]
  glycan array binding signal (z-score): 1.29
[34]
  glycan array binding signal (z-score): -1.65
[35]
  glycan array binding signal (z-score): -0.237
[36]
  glycan array binding signal (z-score): 0.785
[37]
  glycan array binding signal (z-score): -0.119
[38]
  glycan array binding signal (z-score): -0.251
[39]
  glycan array binding signal (z-score): -0.185
[40]
  glycan array binding signal (z-score): 0.006
[41]
  glycan array binding signal (z-score): -1.89
[42]
  glycan array binding signal (z-score): 2.31
